Test results taken from doi:10.1101/467316.
No constants are given. Whether binding was seen depends on the method and setting. For some assays here: Binding seen in cells or lysates may run through a third protein. Some binding calls cover weakened binding; strength is not graded here. One block for each molecule: values may come before it.

Protein sequences, listed by entry. Tags and fused reporters are not part of them.
UniProt P30658: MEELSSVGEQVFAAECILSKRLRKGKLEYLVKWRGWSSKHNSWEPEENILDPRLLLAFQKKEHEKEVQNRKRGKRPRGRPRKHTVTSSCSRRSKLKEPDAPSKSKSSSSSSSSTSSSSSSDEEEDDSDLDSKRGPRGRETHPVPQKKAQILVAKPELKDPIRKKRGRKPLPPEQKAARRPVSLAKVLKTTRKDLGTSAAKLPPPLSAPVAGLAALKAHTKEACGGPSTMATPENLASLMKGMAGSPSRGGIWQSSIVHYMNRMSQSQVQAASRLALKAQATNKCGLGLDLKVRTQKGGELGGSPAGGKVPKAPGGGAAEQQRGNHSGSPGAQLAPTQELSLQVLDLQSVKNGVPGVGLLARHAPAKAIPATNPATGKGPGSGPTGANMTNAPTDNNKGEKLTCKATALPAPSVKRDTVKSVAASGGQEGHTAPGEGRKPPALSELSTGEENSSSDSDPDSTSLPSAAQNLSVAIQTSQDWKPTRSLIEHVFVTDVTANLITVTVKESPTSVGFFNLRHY
UniProt Q8VDS3: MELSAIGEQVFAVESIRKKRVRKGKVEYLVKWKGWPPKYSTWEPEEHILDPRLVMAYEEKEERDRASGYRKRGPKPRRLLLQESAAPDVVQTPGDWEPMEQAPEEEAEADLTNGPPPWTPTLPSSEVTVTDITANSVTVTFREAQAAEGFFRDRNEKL
UniProt Q9CQJ4: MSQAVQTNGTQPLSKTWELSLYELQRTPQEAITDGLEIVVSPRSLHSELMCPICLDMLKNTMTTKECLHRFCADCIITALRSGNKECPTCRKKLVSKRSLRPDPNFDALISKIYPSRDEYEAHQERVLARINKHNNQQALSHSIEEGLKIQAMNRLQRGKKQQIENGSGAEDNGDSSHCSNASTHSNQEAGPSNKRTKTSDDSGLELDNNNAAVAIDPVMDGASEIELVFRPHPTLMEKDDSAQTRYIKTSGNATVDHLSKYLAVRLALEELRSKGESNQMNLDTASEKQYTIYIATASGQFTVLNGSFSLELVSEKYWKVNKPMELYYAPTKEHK

What was measured:
[1] = molecular target: CBX2 (FLAG-tagged, co-expressed with RING1b) (UniProt P30658); experiment: co-purification on anti-FLAG resin
[2] = molecular target: mEGFP-CBX2 (Sf9) (UniProt P30658); experiment: co-purification on anti-FLAG resin
[3] = molecular target: mEGFP-CBX7 (Sf9) (UniProt Q8VDS3); experiment: co-purification on anti-FLAG resin
[4] = molecular target: mEGFP-CBX2 (3T3 fibroblasts) (UniProt P30658); experiment: co-IP

binding [1]: binds
binding [2]: binds
binding [3]: binds
Molecule: RING1b (co-expressed with CBX proteins in Sf9) (from UniProt Q9CQJ4 1-336)

binding [4]: binds
Molecule: RING1b (endogenous, 3T3 fibroblasts) (from UniProt Q9CQJ4 1-336)

binding [4]: binds
B1: PHC1 (endogenous, 3T3 fibroblasts) (protein, UniProt Q64028 1-1010)
chain: METESEQNSSSTNGSSSSGASSRPQIAQMSLYERQAVQALQALQRQPNAAQYFHQFMLQQQLSNAQLHSLAAVQQATIAASRQASSPNSSTAQQQTATTQASMNLATTSAAQLISRSQSVSSPSATTLTQSVLLGNTTSPPLNQSQAQMYLRPQLGNLLQVNRTLGRNVPLASQLILMPNGAVAAVQQEVPPAQSPGVHADADQVQNLAVRNQQASAQGPQMPGSTQKAIPPGASPVSGLSQTSSQALAVAQASSGASGQSLNLSQAGGGSGNSLPGSMGPGGGGQAPGGLGQLPSSGLTGGSCPRKGTGVVQPLPAAQTVTVSQGSQTEAESAAAKKAEADGSGQQSVGMNLTRTATPAPSQTLISSATYTQIQPHSLIQQQQQIHLQQKQVVIQQQIAIHHQQQFQHRQSQLLHTATHLQLAQQQQQQQQQQQQQQQQQQQQQQGTTLTAPQPPQVPPTQQVPPSQSQQQAQTLVVQPMLQSSPLTLPPEPTSKPPIPIQSKPPVAPIKPPQLGAAKMSATQQPPPHIPVQVVGTRQPGSAQAQALGLAQLAAAVPTPRGITGAVQPGQAHLASSPPSSQAAPGALQECPPALAAGMTLAPVQGTAHVVKGGPTASSPVVAQVPAAFYMQSVHLPGKAQTLAVKRKAESEEERDDLSALASVLPTKASPAAESPKVIEEKNSLGEKAEPVASLNANPPNSDLVALAPTPSAPPPTLALVSRQMGDSKPPQAIVKPQILTHIIEGFVIQEGAEPFPVGCSQFLKETKKPLQAGLPTGLNESQPSGPLGGDSPSVELEKKANLLKCEYCGKYAPAEQFRGSKRFCSMTCAKRYNVSCSHQFRLKRKKMKEFQEASYARVRRRGPRRSSSDIARAKIQGKRHRGQEDSSRGSDNSSYDEALSPTSPGPLSVRAGHGERDLGNTITTPSTPELQGINPVFLSSNPSQWSVEEVYEFIASLQGCQEIAEEFRSQEIDGQALLLLKEEHLMSAMNIKLGPALKICAKINVLKET
